The experiment has as its target N-Myc (construct and cells not stated for the experiment) (UniProt P04198). In words: affinity purification with mass spectrometry; immunoprecipitation pull-down of N-Myc, label-free mass spectrometry; hits: protein quantification > 100 compared to the negative control group; cells not given.

Sequences of proteins named here, by UniProt entry; tags and fusion partners are left off.
UniProt P04198: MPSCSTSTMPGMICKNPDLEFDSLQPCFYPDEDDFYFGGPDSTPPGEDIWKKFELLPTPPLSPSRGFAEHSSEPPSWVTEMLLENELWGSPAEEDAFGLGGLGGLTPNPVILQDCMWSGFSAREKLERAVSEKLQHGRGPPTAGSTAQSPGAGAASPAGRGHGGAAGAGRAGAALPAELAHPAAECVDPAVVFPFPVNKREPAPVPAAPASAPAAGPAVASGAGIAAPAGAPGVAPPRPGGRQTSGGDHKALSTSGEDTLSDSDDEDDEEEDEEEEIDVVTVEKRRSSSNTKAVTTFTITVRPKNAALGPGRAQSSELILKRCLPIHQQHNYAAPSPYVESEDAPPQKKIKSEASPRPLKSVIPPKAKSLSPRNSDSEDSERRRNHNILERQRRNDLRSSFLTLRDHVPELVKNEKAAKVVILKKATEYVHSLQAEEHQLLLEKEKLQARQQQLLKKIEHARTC
UniProt P17066: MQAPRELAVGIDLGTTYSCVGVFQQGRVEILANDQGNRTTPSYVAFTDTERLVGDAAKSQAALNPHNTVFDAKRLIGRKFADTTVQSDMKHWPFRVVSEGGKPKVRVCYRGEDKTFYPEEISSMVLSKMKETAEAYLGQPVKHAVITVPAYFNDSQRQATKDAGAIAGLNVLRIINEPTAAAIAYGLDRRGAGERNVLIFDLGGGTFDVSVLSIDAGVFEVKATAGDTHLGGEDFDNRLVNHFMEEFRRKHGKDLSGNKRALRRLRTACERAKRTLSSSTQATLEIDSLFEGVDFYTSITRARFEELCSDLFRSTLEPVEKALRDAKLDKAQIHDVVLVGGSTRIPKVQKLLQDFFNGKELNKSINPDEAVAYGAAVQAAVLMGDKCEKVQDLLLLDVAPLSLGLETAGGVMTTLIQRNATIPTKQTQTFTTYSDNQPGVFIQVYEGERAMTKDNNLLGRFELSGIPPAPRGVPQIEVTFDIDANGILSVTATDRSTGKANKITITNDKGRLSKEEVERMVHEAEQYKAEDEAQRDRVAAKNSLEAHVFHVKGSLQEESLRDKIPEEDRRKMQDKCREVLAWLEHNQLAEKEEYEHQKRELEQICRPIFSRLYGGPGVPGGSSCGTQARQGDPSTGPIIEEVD
UniProt P11142: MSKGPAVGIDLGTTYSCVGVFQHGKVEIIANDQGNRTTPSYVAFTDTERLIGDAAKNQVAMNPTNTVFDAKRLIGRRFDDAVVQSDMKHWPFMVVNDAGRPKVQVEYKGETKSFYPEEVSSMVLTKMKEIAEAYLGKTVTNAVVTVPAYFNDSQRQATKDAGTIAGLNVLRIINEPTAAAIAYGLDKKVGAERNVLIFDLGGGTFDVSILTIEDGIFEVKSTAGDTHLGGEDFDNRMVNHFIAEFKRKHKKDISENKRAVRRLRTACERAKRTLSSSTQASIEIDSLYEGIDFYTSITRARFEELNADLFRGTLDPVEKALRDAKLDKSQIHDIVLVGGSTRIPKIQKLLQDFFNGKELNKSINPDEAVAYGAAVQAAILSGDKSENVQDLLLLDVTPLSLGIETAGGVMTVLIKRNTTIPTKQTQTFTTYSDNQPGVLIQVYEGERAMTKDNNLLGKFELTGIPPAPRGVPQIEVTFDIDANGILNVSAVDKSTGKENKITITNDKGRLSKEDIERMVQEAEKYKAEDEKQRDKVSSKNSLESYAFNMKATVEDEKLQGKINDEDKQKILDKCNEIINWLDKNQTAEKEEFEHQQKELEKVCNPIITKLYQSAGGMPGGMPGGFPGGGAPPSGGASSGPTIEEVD

No constants are given. Whether binding was seen depends on the method and setting. Binding seen in cells or lysates may run through a third protein. These calls come from enrichment with a bait or labelling near it, and not all partners need be listed.

In the case of HSPA6 (from UniProt P17066 1-643), the binding entry was “binds”.

In the case of “HSPA8 (HSC70) (from UniProt P11142 1-646)”, the binding entry is recorded as “binds”.

Values taken from PMC11300456.
